Laboratory results: article PMC7819943, “Rice protein-binding microarrays: a tool to detect cis-acting elements near promoter regions in rice”
The list shows a part of the results.

Amino acid sequences for entries named in this document (tags omitted).
UniProt Q0JBA9, entry or part of it: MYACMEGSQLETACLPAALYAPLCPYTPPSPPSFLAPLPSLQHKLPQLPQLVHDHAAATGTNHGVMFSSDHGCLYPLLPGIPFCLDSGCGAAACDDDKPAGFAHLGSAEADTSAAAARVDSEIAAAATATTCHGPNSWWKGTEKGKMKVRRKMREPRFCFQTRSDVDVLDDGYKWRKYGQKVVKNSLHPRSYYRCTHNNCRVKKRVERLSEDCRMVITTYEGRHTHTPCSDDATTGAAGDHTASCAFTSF

target: OsWRKY34 (Oryza sativa, UniProt Q0JBA9 1-250); experiment: protein-binding microarray (RPBM); PBS, 2% BSA, 51.3 ng/ul salmon testes DNA, 50 uM zinc acetate, 200 nM TF, 25 C, 1 h; high values mean tight binding; conditions: protein: recombinant; tags: N-terminal polyhistidine and DsRed monomer fusion (pET32a); label: CyDye5-dUTP incorporated in the synthesized complementary strand; 3' TTTTT single-stranded linker to array surface; dsDNA, one strand shown
Procedure, shortened: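 Binding signal here means per-feature fluorescence intensity in arbitrary units. The values were read on an Axon 4000B scanner after a custom Agilent array, double-stranded by primer extension with Cy5-dUTP, was incubated with 200 nM protein at 25 °C for 1 h in PBS with 2% BSA, salmon testes DNA and 50 µM zinc acetate, then washed. The proteins were transcription factors with an N-terminal polyhistidine tag and DsRed, expressed in E. coli BL21-CodonPlus and purified on Ni–NTA.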

Sequence | binding signal
ACATTACACTTTGCTTCATTTGCTTCACACTCACTCAAGCCGGAGTCACCTAGTGCAG | 12200 fluorescence intensity (a.u.)
ACGCGGTATATGGATATCAGGATATGATGGGTACAAACTGCGGAGTCACCTAGTGCAG | 9560 fluorescence intensity (a.u.)
AGCCATTTTCATTCCTATCTGGAACGCATGCATATTACACCGGAGTCACCTAGTGCAG | 9430 fluorescence intensity (a.u.)
TTATACATTATTTTACTTGTTTATCCTAGTTGTTATAAATCGGAGTCACCTAGTGCAG | 8192 fluorescence intensity (a.u.)
CTGCATTATGTTTGTTGATCACTGCATGCTTAATGCATATCGGAGTCACCTAGTGCAG | 8480 fluorescence intensity (a.u.)
CCTTTTTTTATTTTTTTGGGGTTGCTTTGATGAGAGGCTGCGGAGTCACCTAGTGCAG | 11400 fluorescence intensity (a.u.)
CAATGGGGCATCCAATTGTCACCGAACTTACCACCAAACCCGGAGTCACCTAGTGCAG | 8280 fluorescence intensity (a.u.)
GTCACGCATAAAGTATTAATTATGTTTTATCATCTAACAACGGAGTCACCTAGTGCAG | 8810 fluorescence intensity (a.u.)
CATCCACCTCATTGCTCTTATCCGATCACCATTAGTACTCCGGAGTCACCTAGTGCAG | 11700 fluorescence intensity (a.u.)
TTGCTACCGGTACCATTACGAACGCCCTTAACAAGCCAACCGGAGTCACCTAGTGCAG | 10100 fluorescence intensity (a.u.)
TGGTCTTGCTGGTTGCTGCGTATTTGGCTGTATTGGTTATCGGAGTCACCTAGTGCAG | 8380 fluorescence intensity (a.u.)
ACGGTTATGCAACTTTTGCCAATTATAGATGGAGATTCACCGGAGTCACCTAGTGCAG | 8390 fluorescence intensity (a.u.)
CTTATTATTGTCATAGTTTCACTTAGAACTAGGCTATGTTCGGAGTCACCTAGTGCAG | 8400 fluorescence intensity (a.u.)
CTTTTCTTTCTTTTCTTTTCCTTTCTTTTTCCTTCTCTCTCGGAGTCACCTAGTGCAG | 10900 fluorescence intensity (a.u.)
GTTAATGTGTTTTGTACTAAGTTACTTTAGTCAAACTATACGGAGTCACCTAGTGCAG | 11600 fluorescence intensity (a.u.)
CACCACCCAACCCCAACGTACCCAGCGCCCAAAGTCAGACCGGAGTCACCTAGTGCAG | 10300 fluorescence intensity (a.u.)
ACGGCTGAGAGTCACCCTGATATTTGAGTCCCGTTCGATCCGGAGTCACCTAGTGCAG | 8650 fluorescence intensity (a.u.)
TTCCTGCGGTCCAATCAAACAACCATTCCTGTGTTTTTCCCGGAGTCACCTAGTGCAG | 12900 fluorescence intensity (a.u.)
GCGTCCACCGCATACTCTCGCCTCTGAATCTTTGCGCCCACGGAGTCACCTAGTGCAG | 9640 fluorescence intensity (a.u.)
CTTTTTTTTTCTTTTTGTTGTGCACAGCTCTTGTTCTCCACGGAGTCACCTAGTGCAG | 8520 fluorescence intensity (a.u.)
GGAGGCAAGAGCGCGAGACGCGAGGAGAGGGTTAGGGTTTCGGAGTCACCTAGTGCAG | 8740 fluorescence intensity (a.u.)

Sequence | binding signal
ATCTCACACGTTGCTCATCATGTCGTCACACTCTCCAGCTCGGAGTCACCTAGTGCAG | 12900 fluorescence intensity (a.u.)
TTGCTTGCACTGTTTGATCACTCGTCTTATTCAAAAATTTCGGAGTCACCTAGTGCAG | 8210 fluorescence intensity (a.u.)
ACTGCCGACCGCCGCTATCGTCGTCTCTCCCGCCACCCGTCGGAGTCACCTAGTGCAG | 9290 fluorescence intensity (a.u.)
TGTCTTGTTTTTTAAAAAAAGGGCCCAACTTTTTTTTTTTCGGAGTCACCTAGTGCAG | 8220 fluorescence intensity (a.u.)
CAAGCTCGTGTACTCGCAGTGCACTTTATTCACTATTTAACGGAGTCACCTAGTGCAG | 9880 fluorescence intensity (a.u.)
GGCTGCATGTTACGCAAAGCTTTGTTTCGATATAGGGGTTCGGAGTCACCTAGTGCAG | 10800 fluorescence intensity (a.u.)
CCAAATCCGGTGACTCCACCTTCGTTACACCTACAAGTTCCGGAGTCACCTAGTGCAG | 8520 fluorescence intensity (a.u.)
AACTGAACATTACCTTTTTCTTTTTTACCCTACGTTAACGCGGAGTCACCTAGTGCAG | 8760 fluorescence intensity (a.u.)
ATCATCACACTCTTGCATACGTGCTTGTTGTCAACTCCATCGGAGTCACCTAGTGCAG | 9440 fluorescence intensity (a.u.)
ATCAGCGACCCATGTCCCTCTAATTTTACGTCAGAGGACTCGGAGTCACCTAGTGCAG | 8460 fluorescence intensity (a.u.)
AAATCTTATGTTGTAAACCAACGCGCCTATTAACGGATTACGGAGTCACCTAGTGCAG | 8720 fluorescence intensity (a.u.)
GCCATCCACACCTTTCCCCGTCGGCGCTTAAATCCTCCCACGGAGTCACCTAGTGCAG | 9650 fluorescence intensity (a.u.)
TTTTTCAATTTTTGGTTAAAATTTTTGGGGCTTTTCTTCGCGGAGTCACCTAGTGCAG | 8990 fluorescence intensity (a.u.)
TTCACTTAGGGTCCCTCTATTTGTGGCCTAGTCTGATTTTCGGAGTCACCTAGTGCAG | 8430 fluorescence intensity (a.u.)
TCTCTCTTTTTTTTTTGGGTCACTTTCGTCGTCTATAAGACGGAGTCACCTAGTGCAG | 8040 fluorescence intensity (a.u.)
AGTTTTGTGGATGGGTATAATGACGTTATAACAACGTTTTCGGAGTCACCTAGTGCAG | 10200 fluorescence intensity (a.u.)
GTGTGTATATTTCAAGATTTTCATTTTACATGTATGAACTCGGAGTCACCTAGTGCAG | 8400 fluorescence intensity (a.u.)
ACTGGCTTCTATCCTTCTCAAATCTGTCGATATCTAGCTTCGGAGTCACCTAGTGCAG | 8140 fluorescence intensity (a.u.)
ATCATCACCCATATCCCTACATGGCAACATATATACGTAGCGGAGTCACCTAGTGCAG | 8360 fluorescence intensity (a.u.)
CATCAGTTTCACACGAATTTTCTTTAATTTAAATTTCCCGCGGAGTCACCTAGTGCAG | 9160 fluorescence intensity (a.u.)
AGTTATTCCGGCCCACTAGTGATCCTCTCAATTTTACCGACGGAGTCACCTAGTGCAG | 8250 fluorescence intensity (a.u.)

Sequence | binding signal
GAACGAACAACCGCGAACCTTCCTGCGGCTTTCTGATACACGGAGTCACCTAGTGCAG | 8420 fluorescence intensity (a.u.)
CTGTTTATTGTTTATTACGTTCCATGCGAAAACTTTCTATCGGAGTCACCTAGTGCAG | 11600 fluorescence intensity (a.u.)
CCTTTTCGTTTCTGTTTTTTTGAGATTTTTATTTAAATTTCGGAGTCACCTAGTGCAG | 8140 fluorescence intensity (a.u.)
CTCAGTTGCCCGACTTACTATAACATTGATTGTTATGTCACGGAGTCACCTAGTGCAG | 11000 fluorescence intensity (a.u.)
CGCTATTCTCAATAATAAGGCAATGCCACACTGTAGTCAACGGAGTCACCTAGTGCAG | 8200 fluorescence intensity (a.u.)
AGCCTAGTACTACCTTCGTCCTAAATTAATGGTCGCTTTGCGGAGTCACCTAGTGCAG | 8870 fluorescence intensity (a.u.)
CAAAGTCGTGATCTATAGCCGTCCTCTTTCCGTTTGAATTCGGAGTCACCTAGTGCAG | 8770 fluorescence intensity (a.u.)
GATTGGTTGTTTGTTCTGTTTTGGACATGCTTGTTAATTACGGAGTCACCTAGTGCAG | 17100 fluorescence intensity (a.u.)
TAGTTTTCGCTTATTTGCAGCTAAATCCTCGGGTCCACATCGGAGTCACCTAGTGCAG | 8900 fluorescence intensity (a.u.)
AATGTTATGGGTTGGGACTGCTCTAAGACCGGTAGCTAGCCGGAGTCACCTAGTGCAG | 9390 fluorescence intensity (a.u.)
TCTTCTTGAATTCTTGACTGCTTATCAGCTTATGTACTACCGGAGTCACCTAGTGCAG | 9340 fluorescence intensity (a.u.)
GTTTTTTGTGTATACAAATTTCTTGTTGCTTTTGAACATCCGGAGTCACCTAGTGCAG | 9930 fluorescence intensity (a.u.)
GCCCATCGCCACCGTCCACCGATCCAGCTGGCCGATCCTGCGGAGTCACCTAGTGCAG | 9040 fluorescence intensity (a.u.)
CATTGGACTTTTGTTGGGCTATAGGTGTGGTTTTGATGGGCGGAGTCACCTAGTGCAG | 11300 fluorescence intensity (a.u.)
AACCAGCCATATTATTATTTTGCTAATACACCGTATGACGCGGAGTCACCTAGTGCAG | 8130 fluorescence intensity (a.u.)
TCCATTTGATTACTCGTAACCATCTCCATTCTTTCATCCTCGGAGTCACCTAGTGCAG | 8160 fluorescence intensity (a.u.)
CCTGTTTCTCTCCTAGAATATCACGCAAACTCAACCCCACCGGAGTCACCTAGTGCAG | 9620 fluorescence intensity (a.u.)
TCACCGCTCCTTGCTTACAATGTTGATACACCACCTTACACGGAGTCACCTAGTGCAG | 9300 fluorescence intensity (a.u.)
TGTTGCATTGATCGCATATACACGTAGCATCCGATAAATTCGGAGTCACCTAGTGCAG | 9000 fluorescence intensity (a.u.)
CGAATTCTGTTATTCCCTTTGTAATATGTGGTTTTCACTACGGAGTCACCTAGTGCAG | 8210 fluorescence intensity (a.u.)
AAGTTTTCGCGTCCAACTTTCATCGTTCGTCTTATTTGAACGGAGTCACCTAGTGCAG | 10600 fluorescence intensity (a.u.)

Sequence | binding signal
CTCTCCTCCTTATCTCCAGTTCTCCACCCACCCACCCTCACGGAGTCACCTAGTGCAG | 9290 fluorescence intensity (a.u.)
GAATTTTTTTTGCTTTCCGAAAAGAAACCCTGCTTATACCCGGAGTCACCTAGTGCAG | 8930 fluorescence intensity (a.u.)
GGTATCAATGTCCAACGTTTGACTATCTGTCTTATTTGAACGGAGTCACCTAGTGCAG | 10800 fluorescence intensity (a.u.)
CGCGATCCATCCATCCACCCGGCTCCCCACACACGAGAAACGGAGTCACCTAGTGCAG | 8980 fluorescence intensity (a.u.)
GGTATATTTCATTATGTTGCATCTTATATTTTTCTTTCCACGGAGTCACCTAGTGCAG | 8510 fluorescence intensity (a.u.)
CTACGTTACACTGTGCGTGGCTTGTCTCTGCTCTATATGTCGGAGTCACCTAGTGCAG | 8590 fluorescence intensity (a.u.)
TATCCTCCTGTGACCTCTCACCTATCGCAAGAACCCCAACCGGAGTCACCTAGTGCAG | 9630 fluorescence intensity (a.u.)
ACTCACTGTTGCCTGTTGGTTTGTTGTCAGTAGCGCTAGGCGGAGTCACCTAGTGCAG | 8370 fluorescence intensity (a.u.)
TCGTAATCGACACACACTTCCACCACAGCCACCTACCATTCGGAGTCACCTAGTGCAG | 8900 fluorescence intensity (a.u.)
GCACCATCCTCCTCGTCGGCCGTTGACGTCTCCGATTCCACGGAGTCACCTAGTGCAG | 8820 fluorescence intensity (a.u.)
AAACACCAGCGCGGCCCTCGCCCTCGCCGTCGCCATTTCCCGGAGTCACCTAGTGCAG | 8520 fluorescence intensity (a.u.)
CCTGCTCCCGCCACGCCATTGCATCCATCCAATATCCATGCGGAGTCACCTAGTGCAG | 8520 fluorescence intensity (a.u.)
TTAATCATCGCTTTACTGTTTTGTTCCTGAACTCTGTAGCCGGAGTCACCTAGTGCAG | 8170 fluorescence intensity (a.u.)
ATTGTATTTCTATATAGACTCTGCCTTTTCTTTTTCTCCGCGGAGTCACCTAGTGCAG | 9630 fluorescence intensity (a.u.)
GTGTCATACCGCTGCTCCTTCTCTTTGCCTATTGCTCCTCCGGAGTCACCTAGTGCAG | 10200 fluorescence intensity (a.u.)
AAAACCGTTTCTCCATCTTCCGATTTGCTCGCGCCGGTTGCGGAGTCACCTAGTGCAG | 8060 fluorescence intensity (a.u.)
AACACACGCACAACATTTTTACGATGCTAGCAAACATTCTCGGAGTCACCTAGTGCAG | 8200 fluorescence intensity (a.u.)
ATAAATACACCCAAACCCTAACCCTAACCCTAGGATTCATCGGAGTCACCTAGTGCAG | 8420 fluorescence intensity (a.u.)
GCCTTTCATCACCCTTTACAAGTTTGACCTTTTCATGTCACGGAGTCACCTAGTGCAG | 13600 fluorescence intensity (a.u.)
GCCTACATATTCCCAACATCCAACTCTTCGTTTTTCCCATCGGAGTCACCTAGTGCAG | 12300 fluorescence intensity (a.u.)
ACATGCCAGCTCCAACACACGAGCTACAACCCGGTAATTACGGAGTCACCTAGTGCAG | 9970 fluorescence intensity (a.u.)

Rewritten tab-delimited: entries from further up.
Sequence	binding signal
GGTATCAATGTCCAACGTTTGACTATCTGTCTTATTTGAACGGAGTCACCTAGTGCAG	10800 fluorescence intensity (a.u.)
CGCGATCCATCCATCCACCCGGCTCCCCACACACGAGAAACGGAGTCACCTAGTGCAG	8980 fluorescence intensity (a.u.)
GGTATATTTCATTATGTTGCATCTTATATTTTTCTTTCCACGGAGTCACCTAGTGCAG	8510 fluorescence intensity (a.u.)
CTACGTTACACTGTGCGTGGCTTGTCTCTGCTCTATATGTCGGAGTCACCTAGTGCAG	8590 fluorescence intensity (a.u.)
TATCCTCCTGTGACCTCTCACCTATCGCAAGAACCCCAACCGGAGTCACCTAGTGCAG	9630 fluorescence intensity (a.u.)
ACTCACTGTTGCCTGTTGGTTTGTTGTCAGTAGCGCTAGGCGGAGTCACCTAGTGCAG	8370 fluorescence intensity (a.u.)
TCGTAATCGACACACACTTCCACCACAGCCACCTACCATTCGGAGTCACCTAGTGCAG	8900 fluorescence intensity (a.u.)
GCACCATCCTCCTCGTCGGCCGTTGACGTCTCCGATTCCACGGAGTCACCTAGTGCAG	8820 fluorescence intensity (a.u.)
AAACACCAGCGCGGCCCTCGCCCTCGCCGTCGCCATTTCCCGGAGTCACCTAGTGCAG	8520 fluorescence intensity (a.u.)
CCTGCTCCCGCCACGCCATTGCATCCATCCAATATCCATGCGGAGTCACCTAGTGCAG	8520 fluorescence intensity (a.u.)
TTAATCATCGCTTTACTGTTTTGTTCCTGAACTCTGTAGCCGGAGTCACCTAGTGCAG	8170 fluorescence intensity (a.u.)
ATTGTATTTCTATATAGACTCTGCCTTTTCTTTTTCTCCGCGGAGTCACCTAGTGCAG	9630 fluorescence intensity (a.u.)
GTGTCATACCGCTGCTCCTTCTCTTTGCCTATTGCTCCTCCGGAGTCACCTAGTGCAG	10200 fluorescence intensity (a.u.)
AAAACCGTTTCTCCATCTTCCGATTTGCTCGCGCCGGTTGCGGAGTCACCTAGTGCAG	8060 fluorescence intensity (a.u.)
